Results deposited as PubChem BioAssay AID1259254 (NCATS, 2017).

- Test: 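Finding genes that stop cells copying their DNA twice in one cycle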 (primary screen)
- System: human HCT116 colorectal cancer cells
- Knock-down reagent: single siRNA against human genes
- Timing: 3 days
- Measurement: 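Imaged Hoechst DNA stain sorts each cell into a cycle phase by DNA amount; per plate, G2 fraction set to 0% for non-targeting and 100% for GMNN siRNA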
- Reading the numbers: G2 robust z-score and G2 cells, % of GMNN control: higher = more G2 cells, more excess DNA replication
- Hit rule: 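An siRNA counts as active if its G2 robust z-score lies at least 5 MADs above the screen median; here such calls match roughly 38% of GMNN control or more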
The deposit covers about 59,000 reagents; this is an unselected part. About 1,550 of them (2.6%) count as active. 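G2 share is only a proxy for re-replication; each gene was hit by three separate siRNAs, and active genes were retested.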 Entries without a mark were called inactive. Reagents against one gene are numbered here. Not all columns of the deposit are shown. The record does not give: the amount of reagent.

The opening 3 entries, ahead of the listing:
{"gene knocked down": "LDHAL6A", "reagent no.": 1, "G2 robust z-score": 0.596, "G2 cells, % of GMNN control": 7.16}
{"gene knocked down": "LDHAL6A", "reagent no.": 2, "G2 robust z-score": 1.15, "G2 cells, % of GMNN control": 11.1}
{"gene knocked down": "LDHAL6A", "reagent no.": 3, "G2 robust z-score": 1.73, "G2 cells, % of GMNN control": 15.2}

The list itself, from the first entry:
{"gene knocked down": "LDHAL6A", "reagent no.": 1, "G2 robust z-score": 0.596, "G2 cells, % of GMNN control": 7.16}
{"gene knocked down": "LDHAL6A", "reagent no.": 2, "G2 robust z-score": 1.15, "G2 cells, % of GMNN control": 11.1}
{"gene knocked down": "LDHAL6A", "reagent no.": 3, "G2 robust z-score": 1.73, "G2 cells, % of GMNN control": 15.2}
{"gene knocked down": "WNT3A", "reagent no.": 1, "G2 robust z-score": 2.41, "G2 cells, % of GMNN control": 19.9}
{"gene knocked down": "WNT3A", "reagent no.": 2, "G2 robust z-score": -0.747, "G2 cells, % of GMNN control": -2.29}
{"gene knocked down": "WNT3A", "reagent no.": 3, "G2 robust z-score": 0.934, "G2 cells, % of GMNN control": 9.54}
{"gene knocked down": "MYO3B", "reagent no.": 1, "G2 robust z-score": 4.97, "G2 cells, % of GMNN control": 38}
{"gene knocked down": "MYO3B", "reagent no.": 2, "G2 robust z-score": -0.265, "G2 cells, % of GMNN control": 1.1}
{"gene knocked down": "MYO3B", "reagent no.": 3, "G2 robust z-score": 0.68, "G2 cells, % of GMNN control": 7.75}
{"gene knocked down": "CCT6B", "reagent no.": 1, "G2 robust z-score": -0.43, "G2 cells, % of GMNN control": -0.0606}
{"gene knocked down": "CCT6B", "reagent no.": 2, "G2 robust z-score": 0.272, "G2 cells, % of GMNN control": 4.88}
{"gene knocked down": "CCT6B", "reagent no.": 3, "G2 robust z-score": -0.198, "G2 cells, % of GMNN control": 1.58}
{"gene knocked down": "POM121L12", "reagent no.": 1, "G2 robust z-score": 1.01, "G2 cells, % of GMNN control": 10.1}
{"gene knocked down": "POM121L12", "reagent no.": 2, "G2 robust z-score": -0.791, "G2 cells, % of GMNN control": -2.6}
{"gene knocked down": "POM121L12", "reagent no.": 3, "G2 robust z-score": 0.0107, "G2 cells, % of GMNN control": 3.04}
{"gene knocked down": "SPANXN2", "reagent no.": 1, "G2 robust z-score": -0.589, "G2 cells, % of GMNN control": -1.18}
{"gene knocked down": "SPANXN2", "reagent no.": 2, "G2 robust z-score": 0.167, "G2 cells, % of GMNN control": 4.14}
{"gene knocked down": "SPANXN2", "reagent no.": 3, "G2 robust z-score": 2.24, "G2 cells, % of GMNN control": 18.7}
{"gene knocked down": "CYP2C18", "reagent no.": 1, "G2 robust z-score": -1.15, "G2 cells, % of GMNN control": -5.14}
{"gene knocked down": "CYP2C18", "reagent no.": 2, "G2 robust z-score": -0.0951, "G2 cells, % of GMNN control": 2.3}
{"gene knocked down": "CYP2C18", "reagent no.": 3, "G2 robust z-score": 1.71, "G2 cells, % of GMNN control": 15}
{"gene knocked down": "YY2", "reagent no.": 1, "G2 robust z-score": 0.252, "G2 cells, % of GMNN control": 4.74}
{"gene knocked down": "YY2", "reagent no.": 2, "G2 robust z-score": -0.877, "G2 cells, % of GMNN control": -3.2}
{"gene knocked down": "YY2", "reagent no.": 3, "G2 robust z-score": "7 (active)", "G2 cells, % of GMNN control": 52.2}
